This is an account of results in publication PMC12671168, “The signal peptide of staphylococcal protein A alters the multimeric states of PepV” (Microbiology Spectrum, 2025).

In this experiment the target is PepV (Staphylococcus aureus), recombinant His-PepV (Staphylococcus aureus). Kind of experiment: SEC; purified PepV alone or incubated with a 10-fold molar excess of peptide; Agilent SEC-3 or TSKgel Super2000 on HPLC; 0.5 M HEPES pH 7.6, 150 mM NaCl; 0.35 mL/min; absorbance at 280 nm; both purified.

No constants are given. Whether binding was seen depends on the method and setting. Binding calls can cover weak binding; strength is not graded here.

Take MKKKNIYSIRKLGVGIASVTLGTLLISGGVTPAANA [SpA SP (signal peptide of staphylococcal protein A)]: the binding entry is listed as “binds”. Under MKKKNIYSIRKLGVGIASVTLGTL [24 peptide (portion of the SpA SP)] stands “binds”.
